{"sequences": {"note": "By UniProt entry, the sequences of proteins in these tests, tags left out. Where a name states a change or a piece, a line headed by the entry shows the natural chain unless it says otherwise.", "UniProt Q9UNA4": "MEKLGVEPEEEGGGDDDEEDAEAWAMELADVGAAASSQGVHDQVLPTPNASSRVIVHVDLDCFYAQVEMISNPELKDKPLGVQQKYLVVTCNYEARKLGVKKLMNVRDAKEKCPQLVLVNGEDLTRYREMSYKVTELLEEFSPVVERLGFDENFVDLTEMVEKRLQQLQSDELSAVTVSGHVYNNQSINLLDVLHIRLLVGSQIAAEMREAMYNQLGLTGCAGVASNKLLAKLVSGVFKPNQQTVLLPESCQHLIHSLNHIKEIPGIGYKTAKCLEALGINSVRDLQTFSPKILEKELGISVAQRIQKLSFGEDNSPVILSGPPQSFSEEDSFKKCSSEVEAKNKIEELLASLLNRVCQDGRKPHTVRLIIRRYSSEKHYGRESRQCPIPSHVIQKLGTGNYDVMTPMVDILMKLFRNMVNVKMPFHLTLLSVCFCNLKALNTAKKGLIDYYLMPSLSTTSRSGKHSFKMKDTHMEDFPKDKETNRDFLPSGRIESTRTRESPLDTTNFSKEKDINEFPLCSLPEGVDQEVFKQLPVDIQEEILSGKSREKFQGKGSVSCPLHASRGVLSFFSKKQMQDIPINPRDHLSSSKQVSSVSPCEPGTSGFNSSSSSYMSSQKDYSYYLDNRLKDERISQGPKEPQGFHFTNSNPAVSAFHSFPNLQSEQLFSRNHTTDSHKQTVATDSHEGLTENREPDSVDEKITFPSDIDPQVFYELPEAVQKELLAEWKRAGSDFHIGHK"}, "source": "PubChem BioAssay AID588590", "about": "(National Center for Advancing Translational Sciences (NCATS), 2011)", "note": "Hit rate of the full screen: of about 390,000 compounds, about 4,000 (1%) were called active. This list was built around the results that the source calls inconclusive (neither active nor inactive); the mix of calls is not that of the screen. Calls follow the shape of the dose curve; as a rule, active = well fitted inhibition curve with a large enough effect; inconclusive = small, poorly fitted or top-dose-only effect, or another doubt; inactive = no such curve, though single readings can be large or run the other way. Potencies of inconclusive entries are doubtful fits and often do not repeat. Residues, ends and D or L forms follow the SMILES beside them. *: point of attachment. Cbz = O=C(OCc1ccccc1)*", "data": [{"target": "DNA polymerase iota (Homo sapiens) (UniProt Q9UNA4)", "assay": "qHTS for Inhibitors of Polymerase Iota; also: potency is read from the fitted curve at half-maximal effect", "conditions": "Pol iota fluorescent replication assay, 10 min; series mostly up to 115 µM", "summary_of_the_method": "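Fluorescent replication assay read twice, at 0 min and 10 min after adding 50 nM (final) substrate. Enzyme (10 nM) and compounds were first incubated 15 min at room temperature; enzyme-free buffer wells were negative controls.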", "values": [{"smiles": "CC1(C)Cc2ccccc2C(N/N=C/c2ccc(Cl)cc2)=N1", "Potency": "inactive"}, {"smiles": "COC(=O)Cn1nc(C)c2c(C)n(-c3ccccc3)nc2c1=O", "Potency": "inconclusive: 89.1 µM [inhibitor, partial curve, poor fit]"}, {"smiles": "COc1ccc(CCNc2ncnc3nc[nH]c23)cc1", "Potency": "inactive"}, {"smiles": "COc1ccc(CCNC(=O)c2cc(-c3cc(C)ccc3O)n[nH]2)cc1OC", "Potency": "inconclusive: 20 µM [inhibitor, partial curve, poor fit]"}, {"smiles": "CCC(C)C(NC(=O)OCc1ccccc1)C(=O)NC(Cc1ccc(O)cc1)C(=O)OC", "note": "(stereo not drawn) (Cbz-Ile-Tyr-OMe; configuration not given here)", "Potency": "inactive"}, {"smiles": "C=CCn1c(SCC(=O)Nc2ccc(NC(=O)c3ccco3)c(OC)c2)nnc1-c1ccncc1", "Potency": "inconclusive: 35.5 µM [inhibitor, partial curve, poor fit]"}, {"smiles": "O=C(C1CCCN(c2ncnc3c2nc2n3CCCCC2)C1)N1CCN(c2ccccc2F)CC1", "note": "(centres undefined)", "Potency": "inconclusive: 89.1 µM [inhibitor, single point]"}, {"smiles": "C/C(=C\\c1ccccc1)CN1CCN(Cc2ccc(C)o2)C(CCO)C1", "note": "(centres undefined)", "Potency": "inconclusive: 3.16 µM [inhibitor, partial curve, poor fit]"}, {"smiles": "CC(=O)c1cccc(CN2CCC(C(=O)Nc3ccc(Oc4cccnc4)cc3)CC2)c1", "Potency": "inconclusive: 89.1 µM [inhibitor, single point]"}, {"smiles": "O=C(NCCc1ccccc1)c1coc(=O)c(Br)c1", "Potency": "inconclusive: 56.2 µM [inhibitor, partial curve, poor fit]"}, {"smiles": "CCC(C(=O)NC1C(=O)N2C(C(=O)O)=C(CSc3nnc(C)s3)CSC12)c1ccccc1", "note": "(centres undefined)", "Potency": "inactive"}, {"smiles": "C/C(=N\\NC(=O)c1cc2ccccc2cc1O)c1ccc(C)o1", "Potency": "inconclusive: 28.2 µM [inhibitor, partial curve]"}, {"smiles": "c1coc(-c2nc3ccccc3nc2-c2ccco2)c1", "Potency": "inconclusive: 17.8 µM [inhibitor, full curve, poor fit]"}, {"smiles": "O=C(O)c1cccnc1SCc1cn2cc(Br)ccc2n1", "Potency": "inconclusive: 79.4 µM [inhibitor, single point]"}, {"smiles": "O=C(O)c1cccc(-n2sc3ccccc3c2=O)c1", "Potency": "inconclusive: 39.8 µM [inhibitor, partial curve, poor fit]"}, {"smiles": "CCCc1cc(=O)oc2c3c(ccc12)OCN(Cc1ccc(OC)cc1)C3", "Potency": "inactive"}, {"smiles": "Cc1ccc(-n2ccc(=O)c(-c3ccnc(SCc4cccc(Cl)c4)n3)n2)cc1", "Potency": "inconclusive: 14.1 µM [inhibitor, full curve, poor fit]"}, {"smiles": "Nc1nc(Sc2ccc([N+](=O)[O-])cc2[N+](=O)[O-])n[nH]1", "Potency": "inconclusive: 3.16 µM [inhibitor, partial curve, poor fit]"}, {"smiles": "S=C(NN=Cc1ccc2c(c1)OCO2)NN=Cc1ccc2c(c1)OCO2", "Potency": "inconclusive: 39.8 µM [inhibitor, partial curve, poor fit]"}, {"smiles": "Cc1ccc(N(CC(=O)N2CCN(c3ccccc3F)CC2)S(=O)(=O)c2c(C)noc2C)cc1", "Potency": "inconclusive: 89.1 µM [inhibitor, single point]"}, {"smiles": "CC1=C(C(=O)NC2CC(C)(C)Cc3c2cnn3-c2cccc(F)c2)OCCO1", "note": "(centres undefined)", "Potency": "inactive"}, {"smiles": "COCCNC(=O)CN(Cc1ccc(OC)cc1)C(=O)CCC(=O)Nc1nccs1", "Potency": "inconclusive: 89.1 µM [inhibitor, partial curve, poor fit]"}, {"smiles": "CCOC(=O)c1[nH]c(COC(=O)C2CC(=O)N(Cc3ccccc3)C2)c(C(=O)OCC)c1C", "note": "(centres undefined)", "Potency": "inconclusive: 39.8 µM [inhibitor, single point]"}, {"smiles": "Cc1oc2cc3oc(=O)c(CC(=O)NCC(=O)N[C@@H](C(=O)O)c4ccccc4)c(C)c3cc2c1C", "Potency": "inconclusive: 39.8 µM [inhibitor, partial curve, poor fit]"}, {"smiles": "Cc1ccc(N2C(=O)C3C(C2=O)N2CCCN2C3c2ccccc2)cc1C", "note": "(centres undefined)", "Potency": "inactive"}, {"smiles": "O=C(/C=C/c1ccc(O)c(O)c1)c1ccc(S(=O)(=O)N2CCCCCC2)cc1", "Potency": "inconclusive: 7.94 µM [inhibitor, full curve, poor fit]"}, {"smiles": "Cc1cn[nH]c1", "Potency": "inconclusive: 17.8 µM [inhibitor, partial curve, poor fit]"}, {"smiles": "Cc1ccc2oc(-c3cccc(NC(=O)c4cc(-n5cnnc5)ccc4Cl)c3)nc2c1", "Potency": "inconclusive: 14.1 µM [inhibitor, partial curve]"}, {"smiles": "O=C(c1ccco1)N1CCN(C(=O)c2ccc(COc3ccc4c(c3)CCC4)o2)CC1", "Potency": "inconclusive: 31.6 µM [inhibitor, full curve, poor fit]"}, {"smiles": "Cc1cc(=O)n2c3c(c4c(cc13)c(CN(C)C)cc(=O)n4C)OC2", "Potency": "inconclusive: 56.2 µM [inhibitor, partial curve, poor fit]"}, {"smiles": "COc1cccc(CCNC(=O)c2cccc(NC(=O)C3=C(C)OCCS3)c2)c1", "Potency": "inconclusive: 50.1 µM [inhibitor, partial curve, poor fit]"}, {"smiles": "O=C(CCn1cnnn1)Nc1ccc(F)cc1", "Potency": "inconclusive: 89.1 µM [inhibitor, single point]"}, {"smiles": "O=C(/C=C/c1ccccc1Cl)Nc1cccnc1", "Potency": "inconclusive: 79.4 µM [inhibitor, partial curve, poor fit]"}, {"smiles": "CSc1nsc(SCC(=O)Nc2ccc3c(c2)OCCO3)n1", "Potency": "inconclusive: 25.1 µM [inhibitor, single point]"}, {"smiles": "COc1ccc(Nc2cc(C(=O)NCCCN3CCN(c4ccc(OC)cc4)CC3)c3ccccc3n2)cc1", "Potency": "inactive"}, {"smiles": "Cc1ccc(S(=O)(=O)c2ccc([N+](=O)[O-])o2)cc1", "Potency": "active: 17.8 µM"}, {"smiles": "Cc1ccc(NC(=O)CSc2ccc(-c3cccs3)nn2)cc1Cl", "Potency": "inconclusive: 100 µM [inhibitor, partial curve, poor fit]"}, {"smiles": "CCC1(c2ccccc2)NC(=O)N(CC(=O)Nc2cc(S(=O)(=O)N3CCCCC3)ccc2N(C)C)C1=O", "note": "(centres undefined)", "Potency": "inconclusive: 89.1 µM [inhibitor, single point]"}, {"smiles": "O=C(COC(=O)CC12CC3CC(CC(Br)(C3)C1)C2)NC(=O)NCc1ccco1", "Potency": "inconclusive: 28.2 µM [inhibitor, partial curve, poor fit]"}]}]}
